Source: PubChem BioAssay AID2685 (National Center for Advancing Translational Sciences (NCATS), 2010)
The whole screen tested about 320,000 compounds, of which about 2,100 (0.66%) were called active. The shares of active, inactive and inconclusive entries below differ from those in the screen. Calls come from the whole dose curve; as a rule, active = well fitted inhibition curve with a large enough effect in the signal ratio, with a control signal flat (not every such curve was filed as active); inconclusive = small, poorly fitted or top-dose-only effect, or effect the other way, or a change in a side signal; inactive = flat fitted curve, though single readings scatter; the % refers to the signal ratio. Where the call is inconclusive, the potency comes from a doubtful curve fit.

Assay: qHTS Assay for Lipid Storage Modulators in Drosophila S3 Cells
Details: BODIPY lipid droplet fluorescence, 18-24 h, cells fed with added oleic acid; lipid storage change, negative = inhibition: at 46.1 µM (top of the series) unless noted
Method in brief: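 Laser-scanning cytometry quantifies lipid droplet accumulation (500–530 nm total intensity; droplet/cell object ratio) in oleic acid-fed (400 uM added) Drosophila S3 cells treated with a concentration series. 20 uM Triacsin C defined 100% inhibition.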
% is set by controls: 0 for no effect and ±100 for the full control effect; potency is the fitted concentration of half-maximal effect.

Lipid storage change, negative = inhibition, inconclusive:
CN(Cc1nccn1C)C(=O)CC1C(=O)NCCN1Cc1ccc(F)cc1Cl (stereo not given) 75.8%
Cc1ccc(Cn2nnc3c(=O)n(CC(=O)NCc4ccccc4)cnc32)cc1 -5.9%
Cc1cccc(C(=O)c2c[nH]cc2-c2ccccc2)c1 20.5%
COc1cccc(OCc2cc(C(=O)N(C)C3CCOCC3)no2)c1 14.9%
CCOC(=O)CNC(=O)c1cc(-c2ccc3c(c2)OCCO3)oc1C -40%
Cc1nnc(NC2=NCCCCC2)o1 -16.6%
Cc1oc(C(C)(C)C)cc1C(=O)N1CCCC1C(=O)O (stereo not given) 0.374%
Cc1c(Cl)c([N+](=O)[O-])nn1CC(=O)NCC1CCCO1 (stereo not given) 30.9%
CCOC(=O)Cc1ncccc1C(=O)Nc1ccc(OC(F)(F)F)cc1 7.49%
CSc1nc2c(c(=O)n1Cc1ccccc1)SC(C)C2 (stereo not given) 72.6%
COc1ccc(S(=O)(=O)N(CCc2ccccc2)CC(=O)NCCCO)cc1 -18.1%
O=C(NC(c1ccccc1)C(Cl)(Cl)Cl)c1ccccc1 (stereo not given) 39.9%

Three entries out of the list, sorted by SMILES length, descending.
Lipid storage change, negative = inhibition, inconclusive:
COc1cccc(OCc2cc(C(=O)N(C)C3CCOCC3)no2)c1 14.9%
O=C(NC(c1ccccc1)C(Cl)(Cl)Cl)c1ccccc1 (stereo not given) 39.9%
CSc1nc2c(c(=O)n1Cc1ccccc1)SC(C)C2 (stereo not given) 72.6%

Following part:

Potency, inconclusive:
COc1cc([C@@H]2CC=C(C(=O)O)[C@H](c3ccccc3F)N2S(=O)(=O)c2ccc(C)cc2)cc(OC)c1OC 29.1 µM [activator, single point]
COC(=O)c1nc(-c2ccc(C)cc2)oc1N(C)C 1.64 µM [activator, full curve, poor fit]
CCOC(=O)[C@H]1[C@H]2COc3ccccc3[C@@H]2N2C(=O)c3cc(C)ccc3NC(=O)[C@@]12C 0.13 µM [activator, full curve, poor fit]
COc1ccc(CNC(=O)COC(=O)c2[nH]c(C)c(C(C)=O)c2C)cc1OC 0.0041 µM [activator, full curve, poor fit]
Cc1ccccc1N=C/C=C1/C=C(c2ccccc2)OC(C)(C)O1 25.9 µM [falling, single point]
Cc1cc(C)cc(NC(=O)c2ccc(S(=O)(=O)N(C)CC3CCCO3)cc2)c1 (stereo not given) 18.4 µM [falling, single point]
CSc1nc2nc3c(cc2c(=O)[nH]1)C(O)Oc1ccc(C)cc1-3 (stereo not given) 29.1 µM [rising, single point]
Cc1cccc(CN2C(=O)N/C(=C/c3ccc(C)s3)C2=O)c1 0.651 µM [activator, single point]
